# In PubChem BioAssay AID504444 (National Center for Advancing Translational Sciences (NCATS), 2011):
# The campaign covered roughly 360,000 compounds. About 7,500 (2.1%) were called active. Inconclusive results, whose numbers are uncertain, are shown with a selection of clear calls. Calls follow the shape of the dose curve; as a rule, active = well fitted inhibition curve with a large enough effect; inconclusive = small, poorly fitted or top-dose-only effect, or effect the other way; inactive = flat fitted curve, though single readings scatter. A potency beside an inconclusive call is a rough fit, not a confirmed value.
# Assay: Nrf2 qHTS screen for inhibitors; also: nearly all actives have a fitted effect of over 60% in size
# Conditions: A549 ARE-Fluc reporter, luciferase luminescence, 18-24 h; activity change, negative = inhibition: at 46 µM (top of the series)
# Procedure, shortened: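 Two sequential reads on A549 ARE_Fluc cells exposed to compound for 18-24 h: a CellTiter-Fluor fluorescence read for viability, then a luciferase luminescence read for Nrf2/ARE activity.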
# % is scaled to controls: 0 for no effect and ±100 for the full control effect; potency is read from the fitted curve at half-maximal effect.
SMILES,Potency,"activity change, negative = inhibition"
O=C(O)CCCCCN1C(=O)/C(=C/c2cn(-c3ccccc3)nc2-c2cccs2)SC1=S,"inconclusive: 20.6 µM [falling, single point]",
CCC(=O)N1CCN(C(C)=O)C1c1ccccc1 (stereo unspecified),"inconclusive: 5.8 µM [activator, single point]",
Cc1cc(S(=O)(=O)NCc2ccccc2)ccc1OCC(=O)NCc1ccccn1,"inconclusive: 14.6 µM [falling, single point]",
O=C1NC2c3c(Cl)sc(Cl)c3C(=O)C2O1 (stereo unspecified),,inactive: 8.4%
COc1cccc(NC(=O)c2ccccc2NC(=O)c2ccncc2)c1,"inconclusive: 29.1 µM [activator, single point]",
CCCN(CC(=O)NC(=O)NC1CCCCC1)CC(=O)Nc1cc(Cl)ccc1Cl,"inconclusive: 29.1 µM [falling, single point]",
Cc1ccccc1C(=O)Nc1ccccc1N1CCN(C(=O)c2ccccc2)CC1,,inactive: -14.9%
N#C/C(=C\c1cc(O)c(O)c(O)c1)C(N)=O,"inconclusive: 20.6 µM [falling, partial curve, poor fit]",
C/C(=N\NC(=S)Nc1cc(S(=O)(=O)N2CCOCC2)ccc1Cl)c1ccccc1F,"inconclusive: 32.6 µM [falling, single point]",
CC(=O)c1cccc(NC(=O)CSc2ccc(-c3ccccn3)nn2)c1,active: 20.6 µM,
Fc1ccccc1-c1cc2ccccc2cn1,"inconclusive: 4.61 µM [activator, partial curve]",
O=C(c1cccc(C(F)(F)F)c1)N1CCOC12CCN(c1ncc(C(F)(F)F)cc1Cl)CC2,active: 25.9 µM,
Cc1cccc(/C(N)=N/OC(=O)c2ccc3c(c2)OCO3)c1,"inconclusive: 1.64 µM [activator, partial curve, poor fit]",
COc1ccc([N+](=O)[O-])cc1NC1C2CC3CC(C2)CC1C3 (stereo unspecified),"inconclusive: 2.91 µM [falling, partial curve, poor fit]",
CC(=O)c1ccccc1OCC(=O)Nc1cccc(S(=O)(=O)N2CCCC2)c1,active: 13 µM,
O=C(c1ccccc1)n1nc(-c2ccco2)nc1NCc1cccs1,,inactive: 4.98%
Cc1ccc(Cn2cc(/C=C(/C#N)C(=O)Nc3cccc(Cl)c3)c3ccccc32)cc1,"inconclusive: 2.91 µM [falling, partial curve, poor fit]",
Cc1cc(C)c2oc(C(=O)Nc3nnc(C(C)C)s3)cc(=O)c2c1,"inconclusive: 18.4 µM [falling, partial curve]",
O=C(c1ccc2c(=O)n(-c3ccccc3)c(=S)[nH]c2c1)N1CCCCC1,active: 7.31 µM,
Cc1ccc(C(=O)NN=Cc2ccc3c(c2)OCO3)cc1,"inconclusive: 1.3 µM [activator, full curve]",
Cc1ccc(S(=O)(=O)N2CCCC2C(=O)NCc2ccccc2Cl)cc1 (stereo unspecified),"inconclusive: 1.46 µM [falling, full curve, poor fit]",

# Compounds from the list above with a thiophene ring, fused or not:
SMILES,Potency,"activity change, negative = inhibition"
O=C(O)CCCCCN1C(=O)/C(=C/c2cn(-c3ccccc3)nc2-c2cccs2)SC1=S,"inconclusive: 20.6 µM [falling, single point]",
O=C1NC2c3c(Cl)sc(Cl)c3C(=O)C2O1 (stereo unspecified),,inactive: 8.4%
O=C(c1ccccc1)n1nc(-c2ccco2)nc1NCc1cccs1,,inactive: 4.98%

# The listing continues:

SMILES,Potency,"activity change, negative = inhibition"
Cc1nnc2ccc(-c3ccc(NS(=O)(=O)c4ccc(Cl)s4)cc3)nn12,"inconclusive: 14.6 µM [falling, partial curve]",
Cc1cccc(NC(=O)c2ccc3nsnc3c2)c1C,"inconclusive: 29.1 µM [activator, single point]",
CC(=O)Nc1ccc(C(=O)OCCCOC(=O)c2ccc(NC(C)=O)cc2)cc1,,inactive: 1.8%
Cc1ccc(S(=O)(=O)N2CCc3cc(C(=O)Nc4ccc(C)c(C)c4)ccc32)cc1,,inactive: 0.621%
O=[N+]([O-])c1cc(C(F)(F)F)ccc1NCCCN1CCOCC1,"inconclusive: 1.46 µM [activator, full curve]",
O=c1cc(-c2ccccc2)nc2cc(-c3ccc(F)cc3)[nH]n12,"inconclusive: 2.59 µM [activator, partial curve, poor fit]",
CCC(=O)NC(=S)Nc1cccc(-c2nc3ncccc3o2)c1,"inconclusive: 36.6 µM [falling, partial curve, poor fit]",
Cc1ccc2nsnc2c1S(=O)(=O)N1CCOCC1,"inconclusive: 6.51 µM [activator, single point]",
Cc1cccc(N(C)C(=O)CN(C)S(=O)(=O)c2ccc3[nH]c4c(c3c2)CCCC4)c1,"inconclusive: 29.1 µM [falling, single point]",
NC(=O)c1sc2nc3c(c(-c4cccs4)c2c1N)CCCCC3,"inconclusive: 1.16 µM [falling, full curve]",
C#CCOCCOCCOCCNc1nc(N2CCN(C(=O)CCCCCCCCCCNC(=O)[C@H](CCCCN)n3cc(C[C@@H](C)CC)nn3)CC2)nc(N2CCN(C(=O)CCCCCCCCCCNC(=O)[C@H](CCCN=C(N)N)n3cc(C[C@@H](C)CC)nn3)CC2)n1,"inconclusive: 25.9 µM [falling, single point]",
CCn1c(=O)n(CC)c2cc(N3CCCC3)c(NC(=O)c3ccccc3OC)cc21,"inconclusive: 29.1 µM [falling, single point]",
CC(C)(C)C(=O)NCc1ccc(C(=O)CSc2nnc(C3CC3)n2C2CC2)s1,"inconclusive: 1.84 µM [falling, partial curve, poor fit]",
O=C(NNC(=O)c1cccc2ccccc12)c1ccc(Cl)cc1Cl,"inconclusive: 8.2 µM [activator, partial curve, poor fit]",
CCCS(=O)(=O)c1c(S(=O)(=O)CCC)c2c(C)cccn2c1C(=O)N/N=C/c1cc(O)cc(O)c1,"inconclusive: 10.3 µM [falling, partial curve]",
COc1cc(C#Cc2ccc3cc(CCCO)oc(=O)c3c2)cc(OC)c1,"inconclusive: 5.17 µM [activator, single point]",
CN(C)/C=N/C(=S)Nc1ccccc1,"inconclusive: 13 µM [activator, partial curve]",
Cc1nnc(SCc2nc(-c3ccc(Cl)cc3)no2)n1-c1ccc(F)cc1,"inconclusive: 18.4 µM [falling, single point]",
CN(C)c1ccc(/C=N\S(=O)(=O)c2ccccc2)cc1,,inactive: 0.274%
COC(CNC(=O)c1cccc(-n2c(=S)[nH]c3cc(Cl)ccc3c2=O)c1)OC,"inconclusive: 5.17 µM [falling, full curve]",
